Assay results as given in PubChem BioAssay AID493014 (National Center for Advancing Translational Sciences (NCATS), 2011).
About 170 (0.05%) of roughly 340,000 compounds were called active. This list was built around the results that the source calls inconclusive (neither active nor inactive); the mix of calls is not that of the screen. Calls follow the shape of the dose curve; as a rule, active = well fitted inhibition curve with a large enough effect in the signal ratio, with a control signal flat (not every such curve was filed as active); inconclusive = small, poorly fitted or top-dose-only effect, or effect the other way, or a change in a side signal; inactive = flat fitted curve, though single readings scatter; the % refers to the signal ratio. Where the call is inconclusive, the potency comes from a doubtful curve fit.
Potency is read from the fitted curve at half-maximal effect.

Test: qHTS Assay to Find Inhibitors of Chronic Active B-Cell Receptor Signaling;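 as to activity change, negative = inhibition: plate controls were basal doxycycline-induced cells for no effect and cells given 10 µM MG132 for full effect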
Details: ABC-DLBCL IkBa-CBG/CBR reporter, luminescence ratio (green luciferase fused to IkBa over red control in TMD8 lymphoma cells), 4 h; activity change, negative = inhibition: at 46.1 µM (top of the series)
Summary of the method: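 Doxycycline induced both beetle luciferases in TMD8 lymphoma cells; IKK-driven degradation limits the IkappaBalpha-fused green signal, while red luminescence normalises for cell number and nonspecific effects. Compounds tested up to 46 uM, 4 hrs.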
For O=C1NC(=O)N(CCc2ccc(F)cc2)C(=O)/C1=C/c1cccs1, the Potency was inconclusive: 12.6 µM [rising, partial curve, poor fit].
In the case of CC(C)c1oc(=O)cc2c1[C@@H](O)[C@H]1OC(=O)[C@@]3(C)C[C@@H](O)[C@@H](O)[C@@]2(C)C13 (stereo partly specified), the activity change, negative = inhibition is reported as inconclusive: 13.6%.
With CCCCCC(=O)Nc1cccc(C2=NOC3(C2)C[C@H](C(N)=O)N(C(=O)COc2ccc(Cl)cc2)C3)c1 (stereo partly specified) the activity change, negative = inhibition was inconclusive: -13.4%.
In the case of CC(=NCCC1=CCCCC1)c1c(O)[nH]c(=O)[nH]c1=O, the activity change, negative = inhibition is reported as “inactive”.
With Nc1c(C(=O)NCc2ccco2)c2nc3ccccc3nc2n1Cc1ccc(F)cc1 the activity change, negative = inhibition was inconclusive: 0.461%.
For CNC(=O)Oc1ccc(-c2cn3cc(C)ccc3n2)cc1, the Potency was inconclusive: 18.4 µM [falling, single point].
With CC(C)n1c(=O)c(C=Nc2ccc(S(N)(=O)=O)cc2)c(O)n(Cc2ccco2)c1=O the activity change, negative = inhibition was inconclusive: 14.2%.
In the case of CC(C)(C)OCC1CO1 (stereo unspecified), the activity change, negative = inhibition is reported as inconclusive: -1.38%.
In the case of CCCOC(=O)c1ccc(Oc2cn[nH]c2-c2ccc(OCC)cc2O)cc1, the activity change, negative = inhibition is reported as inconclusive: -3.55%.
For CCN(CC)C(=O)c1ccc(NC(=O)CCCSc2ccccc2)cc1, the activity change, negative = inhibition was inconclusive: 13.9%.
In the case of CCCC1=Nc2cc(C(=O)NC3CCCCC3)ccc2Sc2ccc(C)cc21, the Potency is reported as inconclusive: 0.631 µM [falling, full curve].
With COC(=O)C1=C(c2ccc(F)cc2OCc2ccccc2)C[C@@H]2CC[C@H]1N2C(=O)NCc1ccccc1Cl the activity change, negative = inhibition was inconclusive: -0.663%.
For Brc1ccc(CN2CCNCC2)s1, the Potency was inconclusive: 3.66 µM [rising, partial curve, poor fit].
With CCCCn1c(=O)c(C(=O)NCc2ccncc2)c(O)c2ccccc21 the Potency was inconclusive: 22.4 µM [falling, single point].
For Cc1nc2c(=O)n(C)c(=O)nc-2n(C)n1, the Potency was inconclusive: 29.1 µM [rising, single point].
In the case of CN1C(=O)c2ccccc2NC(=O)[C@]12O[C@@H]2c1ccccc1, the Potency is reported as inconclusive: 22.4 µM [rising, single point].
With CCn1cc(CN2CCCC(C(=O)c3sccc3C)C2)cn1 (stereo unspecified) the activity change, negative = inhibition was inconclusive: -0.106%.
For CC1CN=C(NCc2ccccc2Cl)S1 (stereo unspecified), the activity change, negative = inhibition was inconclusive: -24.2%.
With O=C(/C=C/c1ccc2c(c1)OCCO2)c1ccc(O)cc1 the Potency was inconclusive: 17.8 µM [falling, partial curve].
For Oc1ccc(CC2(N3CCCC3)CCCCC2)cc1, the activity change, negative = inhibition was “inactive”.
In the case of C[N+]12CCC(CC1)C(OC(=O)C(O)(c1ccccc1)c1ccccc1)C2 (stereo unspecified), the activity change, negative = inhibition is reported as inconclusive: 4.22%.
In the case of Cc1cc(Cc2c(O)[nH]c(=S)[nH]c2=O)ccc1OC(C)C, the activity change, negative = inhibition is reported as “inactive”.
In the case of Nc1ncnc2c1ncn2[C@@H]1O[C@H](COP(=O)(O)O)[C@@H](O)[C@H]1O, the Potency is reported as inconclusive: 35.5 µM [falling, single point].
With COc1ccc2[nH]c(C)c(CCNCc3cn(C)c4ccccc34)c2c1 the activity change, negative = inhibition was inconclusive: -1.03%.
In the case of COc1ccc2c(c1)c(C(=O)O)c(C)n2C(C)C, the activity change, negative = inhibition is reported as inconclusive: 14.7%.
In the case of Cc1ccc(CN2CC3CC(C2)c2cccc(=O)n2C3)cc1 (stereo unspecified), the Potency is reported as inconclusive: 11.6 µM [falling, partial curve].
In the case of COc1cc(C(O)P(=O)(OCC(C)C)c2ccc(N(C)C)cc2)cc(OC)c1OC (stereo unspecified), the activity change, negative = inhibition is reported as inconclusive: 0.829%.
In the case of Cc1ccc(-n2c(/C=C\c3ccc(F)c(F)c3)nc3ccccc3c2=O)c(C)c1, the activity change, negative = inhibition is reported as “inactive”.
With Cc1ccc(N2C(=O)NC(=O)/C(=C\c3cnc(-c4ccccc4)nc3)C2=O)cc1 the activity change, negative = inhibition was inconclusive: -0.0206%.
For C#CCN[C@H](C)Cc1ccccc1, the activity change, negative = inhibition was “inactive”.
For O=C1NC(=S)NC(=O)C1=Cc1cccn1-c1ccc(O)cc1, the Potency was inconclusive: 1.58 µM [rising, full curve].
With O=c1[nH]c(=S)n(C2CC2)c(O)c1C=NCCN1CCOCC1 the activity change, negative = inhibition was “inactive”.
In the case of O=C(c1cc(C(=O)NCc2ccccc2)c(=O)n(Cc2ccccc2)c1)c1cc(Br)ccc1O, the activity change, negative = inhibition is reported as inconclusive: 8.19%.
In the case of COc1ccc(CN2CCCC(C(=O)c3sccc3C)C2)cc1O (stereo unspecified), the activity change, negative = inhibition is reported as inconclusive: 2.42%.
For c1ccc(OCC2CO2)cc1 (stereo unspecified), the activity change, negative = inhibition was “inactive”.
In the case of O=C(COc1ccc2ccc(=O)oc2c1)N1CCC(C(=O)O)(c2ccccc2)CC1, the Potency is reported as inconclusive: 35.5 µM [falling, single point].
In the case of CCN(CC)CCCN=Cc1c(O)n(Cc2ccc(F)cc2)c(=O)[nH]c1=O, the activity change, negative = inhibition is reported as inconclusive: -3.44%.
For C=C(c1ccccc1)P(=O)(O)O, the activity change, negative = inhibition was inconclusive: 3.54%.
For CN1C2CCC1CC(OC(=O)CCN1CCCC1)C2 (stereo unspecified), the activity change, negative = inhibition was inconclusive: -2.69%.
With C=CCNC(=S)Nc1ccc(OC(=O)Nc2ccc(Cl)c(Cl)c2)cc1 the Potency was inconclusive: 8.91 µM [rising, partial curve, poor fit].
With O=C(Nc1ccc(Cl)cc1)N1CC2CC(C1)c1cccc(=O)n1C2 (stereo unspecified) the activity change, negative = inhibition was inconclusive: 11.8%.
In the case of COc1ccc(CNCCc2c[nH]c3ccccc23)c(OC)c1C, the Potency is reported as inconclusive: 17.8 µM [falling, single point].
In the case of COc1cc2c(cc1OC)-c1c(OC)c(OC)cc3c1[C@H](C2)N(C)CC3, the activity change, negative = inhibition is reported as inconclusive: -6.12%.
In the case of CC(Cc1ccccc1Sc1ccc(O)cc1)N(C)C (stereo unspecified), the activity change, negative = inhibition is reported as “inactive”.
With c1cc(C2N3CCCN2CC3)ccn1 (stereo unspecified) the activity change, negative = inhibition was inconclusive: -0.686%.
With NC(N)=N/N=C/c1ccc(N(c2ccccc2)c2ccccc2)cc1 the activity change, negative = inhibition was “inactive”.
For O=C1C(=O)c2ccccc2-c2ccccc21, the Potency was inconclusive: 14.1 µM [rising, single point].
In the case of CCOP(=O)(c1ccc(N(C)C)cc1)C(O)c1ccccc1F (stereo unspecified), the activity change, negative = inhibition is reported as inconclusive: 1.75%.
With CC1=CC(C)(C)n2c(O)c(N=N)c3c(C)c(C)cc1c32 the activity change, negative = inhibition was inconclusive: 11.7%.
With C[C@H]1C(=O)O[C@@H]2CCN3CC=C(COC(=O)[C@](C)(O)[C@]1(C)O)[C@H]23 the activity change, negative = inhibition was “inactive”.
In the case of C=C1C(=O)O[C@@H]2C[C@@H](C)[C@@H]3C=CC(=O)[C@@]3(C)[C@@H](OC(=O)CC(=O)O[C@H]3[C@@H]4C(=C)C(=O)O[C@@H]4C[C@@H](C)[C@@H]4C=CC(=O)[C@]43C)[C@H]12, the activity change, negative = inhibition is reported as inconclusive: 15.5%.
With COc1ccc(N(C)S(=O)(=O)c2ccc3c(c2)oc(=O)n3C)cc1 the activity change, negative = inhibition was inconclusive: 6.89%.
In the case of Cc1ccc(NC(=O)c2cnc(N3CCN(c4ccccn4)CC3)c3ccccc23)c(Br)c1, the Potency is reported as inconclusive: 10 µM [falling, partial curve].
With O=c1c2ccccc2nc(-c2ccco2)n1-c1ccncc1 the activity change, negative = inhibition was inconclusive: 4.52%.
With CNCC[C@H](Oc1ccc(C(F)(F)F)cc1)c1ccccc1 the activity change, negative = inhibition was inconclusive: -24.8%.
In the case of CC(=NCc1cccnc1)c1c(O)n(-c2ccccc2C)c(=O)[nH]c1=O, the activity change, negative = inhibition is reported as “inactive”.
With COc1cccc(NC(=O)C2CCN(c3nnc(C)c4c(C)n(-c5ccccc5)nc34)CC2)c1 the Potency was inconclusive: 35.5 µM [falling, single point].
With O=C(Nc1cccc(Cl)c1)N1C[C@H]2C[C@@H](C1)c1cccc(=O)n1C2 the activity change, negative = inhibition was “inactive”.
In the case of CCc1c(C)nc(N)nc1N1N=C1SC, the Potency is reported as inconclusive: 0.206 µM [rising, full curve, poor fit].
With COC(=O)C1=C(c2ccc3ccccc3c2)C[C@@H]2CC[C@H]1N2C(=O)NCC1CC1 the activity change, negative = inhibition was “inactive”.
For CC(=NCc1cccnc1)c1c(O)n(C2CCCCC2)c(=O)[nH]c1=O, the activity change, negative = inhibition was inconclusive: 15.4%.
For CCCCC1C(=O)NC(=S)NC1=O, the activity change, negative = inhibition was “inactive”.
With O=C(NCc1ccc(C(=O)N2CCC3(CC2)OCCO3)cc1)c1ccc2c(c1)OCO2 the activity change, negative = inhibition was “inactive”.
For CC(=O)c1ccc(NC(=O)N2C[C@H]3C[C@@H](C2)c2cccc(=O)n2C3)cc1, the activity change, negative = inhibition was “inactive”.
In the case of CN(C)C(=S)SSC(=S)N(C)C, the Potency is reported as inconclusive: 2.51 µM [cytotoxic, partial curve].
With COc1cccc(NP(=O)(Oc2ccccc2)Oc2ccccc2)c1 the Potency was inconclusive: 23.1 µM [falling, partial curve, poor fit].
With Nc1c(S(=O)(=O)c2cccc(Cl)c2)c2nc3ccccc3nc2n1CCN1CCOCC1 the activity change, negative = inhibition was inconclusive: 4.2%.
For COc1ccc2nc(NC(=O)CCc3nc(C4=CCN(C)CC4)no3)sc2c1, the Potency was inconclusive: 23.1 µM [falling, single point].
In the case of Nc1ccc(C(=O)N/N=C2/CN3CCC2CC3)cc1, the Potency is reported as inconclusive: 20.6 µM [falling, partial curve].
With O=C1C2CCCC1C(N1CCCC1)CC2 (stereo unspecified) the activity change, negative = inhibition was inconclusive: 2.86%.
For Cc1ccnc(NS(=O)(=O)c2ccc(N=Cc3c(O)n(C)c(=O)n(C)c3=O)cc2)n1, the activity change, negative = inhibition was “inactive”.
In the case of Cc1ccccc1OCCN=Cc1c(O)n(C)c(=O)n(C)c1=O, the activity change, negative = inhibition is reported as inconclusive: -0.312%.
For Cn1c(=O)c2c(nc(N/N=C/c3c(O)n(C4CCCCC4)c(=S)[nH]c3=O)n2C)n(C)c1=O, the activity change, negative = inhibition was “inactive”.
In the case of O=C(Cc1ccccc1)OCc1ccccc1, the activity change, negative = inhibition is reported as inconclusive: 8.43%.
For O=C(Nc1cccc(-c2csc(Nc3ccccc3)n2)c1)c1ccccc1, the activity change, negative = inhibition was inconclusive: -3.03%.
With CN1C(CC(O)c2ccccc2)CCCC1CC(O)c1ccccc1 (stereo unspecified) the activity change, negative = inhibition was “inactive”.
In the case of Cc1cccc(NP(C)(=O)c2nc3c(s2)CCCC3)c1 (stereo unspecified), the activity change, negative = inhibition is reported as “inactive”.
In the case of CCC(=Nc1ccc(OC)cc1OC)c1c(O)n(C)c(=O)n(C)c1=O, the activity change, negative = inhibition is reported as inconclusive: -1.74%.
In the case of Cc1ccc(OCC(=O)N2CCN(CC3CC4C=CC3C4)CC2)cc1 (stereo unspecified), the Potency is reported as inconclusive: 20.6 µM [rising, partial curve, poor fit].
With O=c1[nH]c(=O)n(Cc2ccccc2)c(O)c1/C=C1\C=Nc2ccccc21 the activity change, negative = inhibition was inconclusive: -0.805%.
For O=C(Nc1ccc(Cl)c(Cl)c1)c1ccco1, the Potency was inconclusive: 20 µM [falling, single point].
